Test results as given in the supplement of paper PMC12823440, “Inhibitors supercharge kinase turnover through native proteolytic circuits” (Nature, 2025).
Counter-ions that a name gives are not always drawn. This is one part of the list. Hit calls seldom repeat between salt and free forms of one compound.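 Kinases, fused to nanoluciferase, were expressed in K562 cells; luminescence was measured every 4 h from 2 to 18 h as percent of control (DMSO = 100%, positive control = 0%). A time point is decreased if signal falls significantly (2 sigma). Hits were called by the authors by a rule that is not shown; the count of time points alone does not decide it.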

Amino acid sequences for entries named in this document (tags omitted). A change or cut given only in a name is not applied to a line headed by its entry.
UniProt Q96KB5: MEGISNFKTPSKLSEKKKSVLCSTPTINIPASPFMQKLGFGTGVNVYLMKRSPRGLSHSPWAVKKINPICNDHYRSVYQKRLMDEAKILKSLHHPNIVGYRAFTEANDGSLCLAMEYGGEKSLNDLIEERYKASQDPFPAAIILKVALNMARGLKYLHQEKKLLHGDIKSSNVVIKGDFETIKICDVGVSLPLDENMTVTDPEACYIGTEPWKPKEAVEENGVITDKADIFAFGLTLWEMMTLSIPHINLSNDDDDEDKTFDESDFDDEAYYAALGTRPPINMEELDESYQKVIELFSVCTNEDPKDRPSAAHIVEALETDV
UniProt P09619, whole entry: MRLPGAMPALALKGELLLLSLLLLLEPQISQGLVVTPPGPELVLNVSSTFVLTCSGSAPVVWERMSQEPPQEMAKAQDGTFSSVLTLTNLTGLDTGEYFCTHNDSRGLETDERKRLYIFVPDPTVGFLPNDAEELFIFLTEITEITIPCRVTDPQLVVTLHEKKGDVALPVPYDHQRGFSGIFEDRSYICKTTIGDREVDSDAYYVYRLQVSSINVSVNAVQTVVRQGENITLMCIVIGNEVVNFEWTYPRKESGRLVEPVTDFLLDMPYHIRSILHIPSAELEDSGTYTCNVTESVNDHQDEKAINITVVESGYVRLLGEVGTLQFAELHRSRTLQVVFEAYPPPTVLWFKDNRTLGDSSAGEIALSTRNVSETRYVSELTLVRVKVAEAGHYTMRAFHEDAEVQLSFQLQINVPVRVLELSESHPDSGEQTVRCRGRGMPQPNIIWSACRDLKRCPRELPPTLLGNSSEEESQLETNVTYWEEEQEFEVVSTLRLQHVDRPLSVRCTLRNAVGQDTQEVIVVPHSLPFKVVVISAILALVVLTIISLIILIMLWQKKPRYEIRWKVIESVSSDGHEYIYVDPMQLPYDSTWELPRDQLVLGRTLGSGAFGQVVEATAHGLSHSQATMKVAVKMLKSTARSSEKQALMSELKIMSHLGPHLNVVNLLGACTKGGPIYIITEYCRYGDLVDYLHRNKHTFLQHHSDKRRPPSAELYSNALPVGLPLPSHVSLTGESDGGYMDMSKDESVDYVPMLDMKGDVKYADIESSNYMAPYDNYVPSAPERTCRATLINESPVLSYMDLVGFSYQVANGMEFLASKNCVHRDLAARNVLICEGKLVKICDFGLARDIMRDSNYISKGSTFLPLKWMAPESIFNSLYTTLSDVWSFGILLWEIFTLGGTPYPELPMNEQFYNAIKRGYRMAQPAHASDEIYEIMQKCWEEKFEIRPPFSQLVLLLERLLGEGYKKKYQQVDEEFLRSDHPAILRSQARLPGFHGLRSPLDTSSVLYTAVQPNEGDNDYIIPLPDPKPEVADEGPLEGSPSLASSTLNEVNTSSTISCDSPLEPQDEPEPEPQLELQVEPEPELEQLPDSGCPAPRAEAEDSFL

What follows are molecules tested against PBK (UniProt Q96KB5) (assay: kinase-Nluc reporter destabilization hit call (1 = scored as downregulated) (binary); higher = compound decreases kinase abundance). Conditions: K562; 2-18 h.

Row | SMILES | kinase-Nluc reporter destabilization hit call
1 | O=c1ccc2cc(O)c(O)cc2o1 [Esculetin] (10 µM) | inactive: 0
2 | O=C(Nc1nc2cccc(-c3ccc(CN4CCS(=O)(=O)CC4)cc3)n2n1)C1CC1 [Filgotinib] (2.5 µM) | inactive: 0
3 | CC(C)(O)c1cc2nc(-c3cnc(N)nc3)nc(N3CCOCC3)c2s1 (2.5 µM) | inactive: 0
4 | Cn1cc(-c2ccc3ncc(Cc4ccc5ncccc5c4)n3n2)cn1 (10 µM) | inactive: 0
5 | CC(=O)c1cc(O)ccc1O [2,5-Dihydroxyacetophenone] (10 µM) | inactive: 0
6 | COc1ccc(COc2cc3oc(=O)c4cc(C(C)O)ccc4c3cc2OC)cc1 (centres undefined) [Palomid 529] (2.5 µM) | inactive: 0
7 | O=C(CC(c1ccccc1)C(C(=O)O)C(=O)O)c1ccc(C(F)(F)F)cc1 (centres undefined) (10 µM) | inactive: 0
8 | CC(C)[C@H](CO)Nc1nc(Nc2ccc(C(=O)O)c(Cl)c2)c2ncn(C(C)C)c2n1 [Purvalanol B] (10 µM) | inactive: 0
9 | COc1cc2nccc(Oc3ccc(NC(=O)Nc4ccc(F)cc4F)c(F)c3)c2cc1OC (10 µM) | inactive: 0
10 | N#C/C(=C\c1ccc[nH]1)c1ccc(Cl)c(Cl)c1 (2.5 µM) | inactive: 0
11 | O=c1cc(-c2ccc(O)cc2)oc2cc(O)c(O)c(O)c12 [Scutellarein] (10 µM) | inactive: 0
12 | CC(C)n1nc(C#Cc2ccccc2)c2c(N)ncnc21 (10 µM) | inactive: 0
13 | O=C(N=c1sccn1Cc1ccccc1)c1c[nH]c2ncccc12 (10 µM) | inactive: 0
14 | CC(C)=C/C=C1\O[C@@H]2CC(C)=CC(=O)[C@@H]2[C@]1(C)O [Bisabolangelone] (10 µM) | inactive: 0
15 | COc1ccc(C2CC(c3ccc(Cl)cc3)=NN2c2nc(-c3ccncc3)cs2)cc1 (centres undefined) [mTOR inhibitor-8] (10 µM) | inactive: 0
16 | Cc1cc(F)c(Nc2ncnc3cc(OCc4ccccc4)ccc23)cc1O (10 µM) | inactive: 0
17 | CNCCOc1ccccc1C(C)(C)Nc1nccn(-c2cc(C(=O)NC3CC3)ccc2C)c1=O [p38α inhibitor 2] (10 µM) | inactive: 0
18 | CCn1c(-c2nonc2N)nc2c(C#CCO)ncc(OCCCN)c21 [AKT Kinase Inhibitor] (10 µM) | inactive: 0
19 | NC(=O)c1nc(-c2c(F)cccc2Cl)oc1Nc1ccc(C(=O)N2CCOCC2)cc1 (10 µM) | inactive: 0
20 | O=C(NCc1cccc(O)c1)c1cc2cc(F)ccc2[nH]1 (10 µM) | inactive: 0
21 | Cc1nc(Nc2ncc(C(=O)Nc3c(C)cccc3Cl)s2)cc(N2CCN(C(=O)CCCCCCC(=O)N[C@H](C(=O)N3C[C@H](O)C[C@H]3C(=O)NCc3ccc(-c4scnc4C)cc3)C(C)(C)C)CC2)n1 (2.5 µM) | inactive: 0
22 | Cc1cccc(-c2[nH]c(C(C)(C)C)nc2-c2ccc3c(c2)OCO3)n1 (2.5 µM) | inactive: 0
23 | Cc1cccc(Cn2nc(C)c3c(NC(=O)c4csc5c(N)ncnc45)cccc32)n1 (10 µM) | inactive: 0
24 | CC[C@@H]1CN(C(=O)NCC(F)(F)F)C[C@@H]1c1cnc2cnc3[nH]ccc3n12 [Upadacitinib] (10 µM) | inactive: 0
25 | CNS(=O)(=O)C[C@H]1CC[C@H](N(C)c2[nH]cnc3nccc2-3)CC1 [Oclacitinib (maleate)] (10 µM) | inactive: 0
26 | COc1cc(-c2cnc(N)c(-c3ccc(NC(=O)c4cn(CC5CCOCC5)cc(-c5ccc(C)cn5)c4=O)cc3F)c2)ccc1OC[C@H]1COCCO1 [DS-1205b (free base)] (10 µM) | inactive: 0

These molecules were tested against PDGFRB (UniProt P09619) in the same assay as above. Conditions: K562; 2-18 h.

Row | SMILES | kinase-Nluc reporter destabilization hit call
27 | C=CC(=O)N1CCC[C@@H](n2c(=O)n(-c3ccc(Oc4ccccc4)cc3)c3c(N)nccc32)C1 [Tolebrutinib] (10 µM) | inactive: 0
28 | C[C@]1(O)C[C@@](N)(c2ccc(-c3nc4n(c3-c3ccccc3)COc3ccncc3-4)cc2)C1 [TAS-117 (hydrochloride)] (10 µM) | inactive: 0
29 | CCOC(=O)C1=C[C@]2(CC)CCCN3CCc4c(n1c1ccccc41)[C@@H]32 [Vinpocetine] (10 µM) | inactive: 0
30 | CC(C)(C)NS(=O)(=O)c1cncc(-c2cc(F)c3nc(N)nn3c2)c1 (10 µM) | inactive: 0
31 | CC(C)(C)c1ccc(C(=O)Nc2cn3cc(-n4ccnc4)ccc3n2)cc1 (10 µM) | inactive: 0
32 | Cc1nc(NC(=O)N2CCC[C@H]2C(N)=O)sc1-c1csc(C(C)(C)C)n1 (10 µM) | inactive: 0
33 | N#Cc1cn([C@@H]2O[C@H](CO)[C@@H](O)[C@H]2O)c2nc[nH]c(=O)c12 [Jaspamycin] (10 µM) | inactive: 0
34 | Cc1ccc(-c2csc(Cn3nc(CC4OCCCO4)c4ccccc4c3=O)n2)cc1 (10 µM) | inactive: 0
35 | CNC(=O)c1c(C)oc2cc(Oc3ncnc4cc(OC)c(OC)cc34)ccc12 [Fruquintinib] (10 µM) | inactive: 0
36 | O=S(=O)(N=Cc1c(O)ccc2ccccc12)c1cccs1 (10 µM) | inactive: 0
37 | NC(=O)c1cccc2c(N[C@H](CN3CCC3)c3ccc(Cl)c(C(F)(F)F)c3)ncnc12 (10 µM) | inactive: 0
38 | CN1CCC(c2ccccc2CC(C)(C)Nc2nc(N3CCOCC3)nc(-n3c(S(C)(=O)=O)nc4ccccc43)n2)CC1 (10 µM) | inactive: 0
39 | O=c1ccc2cc(O)c(O)cc2o1 [Esculetin] (10 µM) | inactive: 0
40 | O=C(Nc1nc2cccc(-c3ccc(CN4CCS(=O)(=O)CC4)cc3)n2n1)C1CC1 [Filgotinib] (2.5 µM) | inactive: 0
41 | CC(C)(O)c1cc2nc(-c3cnc(N)nc3)nc(N3CCOCC3)c2s1 (2.5 µM) | inactive: 0
42 | Cn1cc(-c2ccc3ncc(Cc4ccc5ncccc5c4)n3n2)cn1 (10 µM) | inactive: 0
43 | CC(=O)c1cc(O)ccc1O [2,5-Dihydroxyacetophenone] (10 µM) | inactive: 0
44 | COc1ccc(COc2cc3oc(=O)c4cc(C(C)O)ccc4c3cc2OC)cc1 (centres undefined) [Palomid 529] (2.5 µM) | inactive: 0
45 | O=C(CC(c1ccccc1)C(C(=O)O)C(=O)O)c1ccc(C(F)(F)F)cc1 (centres undefined) (10 µM) | inactive: 0

Row | SMILES | kinase-Nluc reporter destabilization hit call
46 | CC(C)[C@H](CO)Nc1nc(Nc2ccc(C(=O)O)c(Cl)c2)c2ncn(C(C)C)c2n1 [Purvalanol B] (10 µM) | inactive: 0
47 | COc1cc2nccc(Oc3ccc(NC(=O)Nc4ccc(F)cc4F)c(F)c3)c2cc1OC (10 µM) | inactive: 0
48 | N#C/C(=C\c1ccc[nH]1)c1ccc(Cl)c(Cl)c1 (2.5 µM) | inactive: 0
49 | O=c1cc(-c2ccc(O)cc2)oc2cc(O)c(O)c(O)c12 [Scutellarein] (10 µM) | inactive: 0
50 | CC(C)n1nc(C#Cc2ccccc2)c2c(N)ncnc21 (10 µM) | inactive: 0
51 | O=C(N=c1sccn1Cc1ccccc1)c1c[nH]c2ncccc12 (10 µM) | inactive: 0
52 | CC(C)=C/C=C1\O[C@@H]2CC(C)=CC(=O)[C@@H]2[C@]1(C)O [Bisabolangelone] (10 µM) | inactive: 0
53 | COc1ccc(C2CC(c3ccc(Cl)cc3)=NN2c2nc(-c3ccncc3)cs2)cc1 (centres undefined) [mTOR inhibitor-8] (10 µM) | inactive: 0
54 | Cc1cc(F)c(Nc2ncnc3cc(OCc4ccccc4)ccc23)cc1O (10 µM) | inactive: 0
55 | CNCCOc1ccccc1C(C)(C)Nc1nccn(-c2cc(C(=O)NC3CC3)ccc2C)c1=O [p38α inhibitor 2] (10 µM) | inactive: 0
56 | CCn1c(-c2nonc2N)nc2c(C#CCO)ncc(OCCCN)c21 [AKT Kinase Inhibitor] (10 µM) | inactive: 0
57 | NC(=O)c1nc(-c2c(F)cccc2Cl)oc1Nc1ccc(C(=O)N2CCOCC2)cc1 (10 µM) | inactive: 0
58 | O=C(NCc1cccc(O)c1)c1cc2cc(F)ccc2[nH]1 (10 µM) | inactive: 0
59 | Cc1nc(Nc2ncc(C(=O)Nc3c(C)cccc3Cl)s2)cc(N2CCN(C(=O)CCCCCCC(=O)N[C@H](C(=O)N3C[C@H](O)C[C@H]3C(=O)NCc3ccc(-c4scnc4C)cc3)C(C)(C)C)CC2)n1 (2.5 µM) | inactive: 0
60 | Cc1cccc(-c2[nH]c(C(C)(C)C)nc2-c2ccc3c(c2)OCO3)n1 (2.5 µM) | inactive: 0
61 | Cc1cccc(Cn2nc(C)c3c(NC(=O)c4csc5c(N)ncnc45)cccc32)n1 (10 µM) | inactive: 0
62 | CC[C@@H]1CN(C(=O)NCC(F)(F)F)C[C@@H]1c1cnc2cnc3[nH]ccc3n12 [Upadacitinib] (10 µM) | inactive: 0
63 | CNS(=O)(=O)C[C@H]1CC[C@H](N(C)c2[nH]cnc3nccc2-3)CC1 [Oclacitinib (maleate)] (10 µM) | inactive: 0
64 | COc1cc(-c2cnc(N)c(-c3ccc(NC(=O)c4cn(CC5CCOCC5)cc(-c5ccc(C)cn5)c4=O)cc3F)c2)ccc1OC[C@H]1COCCO1 [DS-1205b (free base)] (10 µM) | inactive: 0
